Results deposited as PubChem BioAssay AID652243 (Drosophila RNAi Screening Center, 2013).

- Screen: 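Fly regulators of androgen-dependent reporter output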 (primary screen)
- Cells: Drosophila S2R+ cells
- Reagent: long dsRNA against Drosophila genes
- Duration: 72 h (48 h, then 24 h hormone)
- Conditions: synthetic androgen R1881 at 10 nM for 24 h
- Measured: 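Firefly light from an androgen-responsive reporter and Renilla control light per well, raw and unnormalised, for each of two replicates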
- Scale: firefly reporter light: higher = more light from androgen-responsive reporter; Renilla control light: higher = more constitutive control signal (cell number, transfection)
- Hit rule: 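Hit when the log firefly-to-Renilla ratio dropped or increased by a fixed fold versus the mean of GFP or LacZ controls across duplicate plates; lowering cut given as 1.5 and as 3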
- Meaning of the calls: active = hit: reporter lowered or raised; inactive = no hit
The deposit covers about 24,000 reagents; this is an unselected part of those that have a named target and a result. Over the whole deposit, 246 (1%) got an active call. 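Plates not normalised; calls are printed but the firefly/Renilla ratio behind them is not deposited; fold cut for lowering reported inconsistently.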 The raw values are shown without normalisation. The numbers tell different reagents against one gene apart. Names joined by + are all predicted targets of the reagent. The record does not give: the amount of reagent.

CG9445 scored firefly reporter light, replicate 1 = 2.92e5; firefly reporter light, replicate 2 = 2.53e5; Renilla control light, replicate 1 = 2.30e6; Renilla control light, replicate 2 = 1.79e6; inactive. sqz (squeeze) #1 gave firefly reporter light, replicate 1 = 3.08e5; firefly reporter light, replicate 2 = 3.21e5; Renilla control light, replicate 1 = 3.70e6; Renilla control light, replicate 2 = 4.01e6; inactive. With knock-down of sqz (squeeze) #2, the screen gave firefly reporter light, replicate 1 = 1.10e6; firefly reporter light, replicate 2 = 8.93e5; Renilla control light, replicate 1 = 1.60e6; Renilla control light, replicate 2 = 1.30e6; inactive. With knock-down of Ugt305A1 (UDP-glycosyltransferase family 305 member A1) #1, the record shows firefly reporter light, replicate 1 = 1.14e5; firefly reporter light, replicate 2 = 74757; Renilla control light, replicate 1 = 1.29e6; Renilla control light, replicate 2 = 7.98e5; inactive. Ugt305A1 (UDP-glycosyltransferase family 305 member A1) #2 gave firefly reporter light, replicate 1 = 2.17e5; firefly reporter light, replicate 2 = 2.65e5; Renilla control light, replicate 1 = 4.57e5; Renilla control light, replicate 2 = 6.16e5; inactive. CG30053 showed firefly reporter light, replicate 1 = 3.74e5; firefly reporter light, replicate 2 = 2.69e5; Renilla control light, replicate 1 = 2.10e5; Renilla control light, replicate 2 = 2.27e5; inactive.

CG9570 scored firefly reporter light, replicate 1 = 1.60e5; firefly reporter light, replicate 2 = 1.64e5; Renilla control light, replicate 1 = 4.30e5; Renilla control light, replicate 2 = 2.84e5; inactive. After knock-down of Ada1-1 + Ada1-2 #1, the record shows firefly reporter light, replicate 1 = 1.31e5; firefly reporter light, replicate 2 = 1.40e5; Renilla control light, replicate 1 = 5.88e5; Renilla control light, replicate 2 = 4.42e5; inactive. Depletion of Ada1-1 + Ada1-2 #2 resulted in: firefly reporter light, replicate 1 = 75640; firefly reporter light, replicate 2 = 1.07e5; Renilla control light, replicate 1 = 5.16e5; Renilla control light, replicate 2 = 5.23e5; active. Ada1-1 + Ada1-2 #3 scored firefly reporter light, replicate 1 = 3.22e5; firefly reporter light, replicate 2 = 4.00e5; Renilla control light, replicate 1 = 1.28e6; Renilla control light, replicate 2 = 1.04e6; inactive. Sec63 (Secretory 63) showed firefly reporter light, replicate 1 = 2.23e5; firefly reporter light, replicate 2 = 2.74e5; Renilla control light, replicate 1 = 2.18e6; Renilla control light, replicate 2 = 1.88e6; inactive. CG33928 scored firefly reporter light, replicate 1 = 5.15e5; firefly reporter light, replicate 2 = 4.31e5; Renilla control light, replicate 1 = 1.27e6; Renilla control light, replicate 2 = 1.21e6; inactive.

Depletion of CG16898 #1 came out at: firefly reporter light, replicate 1 = 74115; firefly reporter light, replicate 2 = 1.00e5; Renilla control light, replicate 1 = 9.60e5; Renilla control light, replicate 2 = 1.56e6; inactive. With knock-down of CG16898 #2, the record shows firefly reporter light, replicate 1 = 8.31e5; firefly reporter light, replicate 2 = 7.94e5; Renilla control light, replicate 1 = 9.59e5; Renilla control light, replicate 2 = 9.22e5; inactive. CG16898 #3 showed firefly reporter light, replicate 1 = 9.33e5; firefly reporter light, replicate 2 = 8.49e5; Renilla control light, replicate 1 = 2.19e6; Renilla control light, replicate 2 = 1.84e6; inactive. Against Cyp4ae1 (Cytochrome P450 4ae1) #1 the deposit lists firefly reporter light, replicate 1 = 1.00e5; firefly reporter light, replicate 2 = 28360; Renilla control light, replicate 1 = 4.86e5; Renilla control light, replicate 2 = 4.33e5; inactive. Depletion of Cyp4ae1 (Cytochrome P450 4ae1) #2 gave: firefly reporter light, replicate 1 = 4.58e5; firefly reporter light, replicate 2 = 4.66e5; Renilla control light, replicate 1 = 7.19e5; Renilla control light, replicate 2 = 7.58e5; inactive. Dlic (Dynein light intermediate chain) gave firefly reporter light, replicate 1 = 1.13e5; firefly reporter light, replicate 2 = 89930; Renilla control light, replicate 1 = 7.10e5; Renilla control light, replicate 2 = 5.53e5; inactive.

After knock-down of CG31910, the screen gave firefly reporter light, replicate 1 = 9.37e5; firefly reporter light, replicate 2 = 9.05e5; Renilla control light, replicate 1 = 1.66e6; Renilla control light, replicate 2 = 1.71e6; inactive. Knock-down of CG30158 #1 came out at: firefly reporter light, replicate 1 = 1.33e5; firefly reporter light, replicate 2 = 1.46e5; Renilla control light, replicate 1 = 2.42e5; Renilla control light, replicate 2 = 3.18e5; inactive. CG30158 #2 showed firefly reporter light, replicate 1 = 2.14e5; firefly reporter light, replicate 2 = 2.52e5; Renilla control light, replicate 1 = 1.89e6; Renilla control light, replicate 2 = 1.83e6; inactive. Depletion of CG30158 #3 gave: firefly reporter light, replicate 1 = 2.34e5; firefly reporter light, replicate 2 = 2.92e5; Renilla control light, replicate 1 = 1.99e6; Renilla control light, replicate 2 = 2.10e6; inactive. Against CG30158 #4, the entry reads firefly reporter light, replicate 1 = 3.18e5; firefly reporter light, replicate 2 = 3.26e5; Renilla control light, replicate 1 = 1.70e6; Renilla control light, replicate 2 = 1.90e6; inactive.
